Experimental findings from patent US12473303B2, “4-[[(7-aminopyrazolo[1,5-a]pyrimidin-5-yl)amino methyl]piperidin-3-ol compounds and their therapeutic use” (CARRICK THERAPEUTICS LIMITED, priority 2019, dated 2025) are described below.

This experiment relates to A673 cells. The experiment can be described thus: Cellular potency in A673 cells. It counts as cell-based. The settings on record: Homo sapiens, Table 2.

The compound `CCc1cnn2c(NCc3ccc[n+]([O-])c3)cc(N3CCCC[C@H]3CCO)nc12` [Dinaciclib, reference compound] showed an IC50 of 4.9 nM.

As usually defined, the IC50 is the midpoint of a concentration-inhibition curve. The low end stands for higher potency, the high end for lower potency.
